Laboratory results reported in the supplement of paper PMC10849652.
Some of the results follow.

Protein sequences, listed by entry. Tags and fused reporters are not part of them. Lines headed by an entry give the natural chain unless they say otherwise; changes in a name come on top.
UniProt P15848: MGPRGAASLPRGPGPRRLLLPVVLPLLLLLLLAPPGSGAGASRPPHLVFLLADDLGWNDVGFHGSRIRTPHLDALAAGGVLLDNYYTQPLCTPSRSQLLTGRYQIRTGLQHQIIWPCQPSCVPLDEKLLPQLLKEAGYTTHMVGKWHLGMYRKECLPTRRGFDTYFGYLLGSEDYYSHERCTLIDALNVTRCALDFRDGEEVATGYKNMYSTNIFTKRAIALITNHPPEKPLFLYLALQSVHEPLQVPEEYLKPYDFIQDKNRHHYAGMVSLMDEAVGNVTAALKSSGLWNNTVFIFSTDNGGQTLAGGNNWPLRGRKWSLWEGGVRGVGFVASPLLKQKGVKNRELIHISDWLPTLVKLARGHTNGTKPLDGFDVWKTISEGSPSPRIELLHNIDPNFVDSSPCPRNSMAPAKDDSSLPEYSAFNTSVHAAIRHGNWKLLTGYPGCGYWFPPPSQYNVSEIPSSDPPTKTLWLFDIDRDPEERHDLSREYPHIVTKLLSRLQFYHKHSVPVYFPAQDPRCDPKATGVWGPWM
UniProt Q9NVT9: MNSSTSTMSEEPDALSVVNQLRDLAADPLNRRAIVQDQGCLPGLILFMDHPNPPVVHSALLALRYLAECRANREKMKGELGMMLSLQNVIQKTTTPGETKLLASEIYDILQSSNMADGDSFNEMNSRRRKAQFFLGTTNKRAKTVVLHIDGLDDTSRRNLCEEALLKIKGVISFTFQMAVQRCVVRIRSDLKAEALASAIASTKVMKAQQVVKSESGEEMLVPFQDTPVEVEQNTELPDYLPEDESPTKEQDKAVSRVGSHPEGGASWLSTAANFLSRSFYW
UniProt P27540, whole entry, looked up: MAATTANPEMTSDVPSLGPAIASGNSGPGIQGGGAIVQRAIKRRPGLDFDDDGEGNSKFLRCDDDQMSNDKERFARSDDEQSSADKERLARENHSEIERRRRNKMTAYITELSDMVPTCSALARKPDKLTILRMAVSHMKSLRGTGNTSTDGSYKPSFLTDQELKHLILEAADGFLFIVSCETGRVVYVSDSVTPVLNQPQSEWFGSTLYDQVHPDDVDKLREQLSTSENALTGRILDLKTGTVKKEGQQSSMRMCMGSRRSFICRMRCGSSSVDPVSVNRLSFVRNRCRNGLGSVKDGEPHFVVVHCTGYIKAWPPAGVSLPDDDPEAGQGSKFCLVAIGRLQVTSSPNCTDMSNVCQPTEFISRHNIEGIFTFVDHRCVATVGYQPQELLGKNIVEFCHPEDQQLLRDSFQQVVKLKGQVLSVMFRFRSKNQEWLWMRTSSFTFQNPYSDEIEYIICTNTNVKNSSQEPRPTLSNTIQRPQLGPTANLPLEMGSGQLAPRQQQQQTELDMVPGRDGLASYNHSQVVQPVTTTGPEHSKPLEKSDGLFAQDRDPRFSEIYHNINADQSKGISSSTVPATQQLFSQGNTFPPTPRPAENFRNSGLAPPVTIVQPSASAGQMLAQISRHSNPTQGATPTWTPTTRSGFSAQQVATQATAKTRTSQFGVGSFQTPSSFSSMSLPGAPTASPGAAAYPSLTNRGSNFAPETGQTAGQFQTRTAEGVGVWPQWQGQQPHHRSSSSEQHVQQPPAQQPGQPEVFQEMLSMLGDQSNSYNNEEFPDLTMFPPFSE
UniProt O94817, whole entry, looked up: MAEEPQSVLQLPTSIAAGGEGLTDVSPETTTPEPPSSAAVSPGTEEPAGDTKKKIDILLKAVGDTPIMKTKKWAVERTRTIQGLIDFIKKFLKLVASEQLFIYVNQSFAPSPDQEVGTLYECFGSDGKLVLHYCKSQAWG
UniProt P38606, whole entry, looked up: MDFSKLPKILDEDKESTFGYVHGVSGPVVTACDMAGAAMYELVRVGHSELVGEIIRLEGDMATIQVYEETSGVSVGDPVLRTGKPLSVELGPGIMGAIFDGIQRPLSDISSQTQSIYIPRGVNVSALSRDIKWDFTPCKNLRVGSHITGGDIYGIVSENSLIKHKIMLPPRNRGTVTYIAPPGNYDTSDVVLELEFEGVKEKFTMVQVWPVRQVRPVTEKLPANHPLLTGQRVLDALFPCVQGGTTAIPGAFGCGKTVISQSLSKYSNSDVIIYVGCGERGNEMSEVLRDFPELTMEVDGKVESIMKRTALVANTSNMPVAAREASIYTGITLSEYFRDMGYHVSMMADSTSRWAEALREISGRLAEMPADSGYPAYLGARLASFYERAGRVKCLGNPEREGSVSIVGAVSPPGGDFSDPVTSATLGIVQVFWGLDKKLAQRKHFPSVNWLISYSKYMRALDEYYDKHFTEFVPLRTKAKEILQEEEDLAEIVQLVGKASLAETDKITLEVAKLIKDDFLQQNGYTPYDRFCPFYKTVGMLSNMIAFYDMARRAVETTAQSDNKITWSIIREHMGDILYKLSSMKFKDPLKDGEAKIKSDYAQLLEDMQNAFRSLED
UniProt O75787, whole entry, looked up: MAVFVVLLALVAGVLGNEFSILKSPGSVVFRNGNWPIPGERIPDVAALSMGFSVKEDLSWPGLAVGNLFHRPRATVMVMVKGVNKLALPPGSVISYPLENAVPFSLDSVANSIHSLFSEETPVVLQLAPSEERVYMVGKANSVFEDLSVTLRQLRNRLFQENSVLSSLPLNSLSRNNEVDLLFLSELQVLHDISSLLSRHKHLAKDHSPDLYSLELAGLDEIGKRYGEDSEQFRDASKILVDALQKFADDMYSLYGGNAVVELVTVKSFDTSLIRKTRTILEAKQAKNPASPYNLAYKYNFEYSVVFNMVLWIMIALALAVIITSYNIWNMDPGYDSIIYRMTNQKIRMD
UniProt Q9NT62, whole entry, looked up: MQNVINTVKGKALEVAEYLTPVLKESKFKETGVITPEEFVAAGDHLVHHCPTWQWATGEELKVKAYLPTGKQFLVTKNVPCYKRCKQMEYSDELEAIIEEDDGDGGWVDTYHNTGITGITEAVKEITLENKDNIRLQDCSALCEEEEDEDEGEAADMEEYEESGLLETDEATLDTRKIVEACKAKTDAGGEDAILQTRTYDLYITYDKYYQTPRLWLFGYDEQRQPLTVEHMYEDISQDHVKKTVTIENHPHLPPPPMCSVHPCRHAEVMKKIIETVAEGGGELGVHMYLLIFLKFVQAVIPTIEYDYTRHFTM
UniProt Q9Y5K8, whole entry, looked up: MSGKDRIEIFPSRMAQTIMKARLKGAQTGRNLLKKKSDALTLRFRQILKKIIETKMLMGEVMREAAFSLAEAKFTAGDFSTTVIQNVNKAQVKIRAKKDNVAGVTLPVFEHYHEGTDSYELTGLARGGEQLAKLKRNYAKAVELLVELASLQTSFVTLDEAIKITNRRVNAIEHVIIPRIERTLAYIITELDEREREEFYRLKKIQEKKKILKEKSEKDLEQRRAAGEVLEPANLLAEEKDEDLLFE
UniProt P30049: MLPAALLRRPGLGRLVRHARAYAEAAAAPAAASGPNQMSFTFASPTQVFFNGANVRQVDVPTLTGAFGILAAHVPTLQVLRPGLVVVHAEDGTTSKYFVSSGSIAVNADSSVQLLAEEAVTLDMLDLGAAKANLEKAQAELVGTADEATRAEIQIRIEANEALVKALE
UniProt Q9NVJ2: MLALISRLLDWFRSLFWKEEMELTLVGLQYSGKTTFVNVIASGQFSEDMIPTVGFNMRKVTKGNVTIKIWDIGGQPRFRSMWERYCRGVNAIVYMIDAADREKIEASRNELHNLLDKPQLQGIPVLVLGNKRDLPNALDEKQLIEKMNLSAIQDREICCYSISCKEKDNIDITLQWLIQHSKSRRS
UniProt Q7L266: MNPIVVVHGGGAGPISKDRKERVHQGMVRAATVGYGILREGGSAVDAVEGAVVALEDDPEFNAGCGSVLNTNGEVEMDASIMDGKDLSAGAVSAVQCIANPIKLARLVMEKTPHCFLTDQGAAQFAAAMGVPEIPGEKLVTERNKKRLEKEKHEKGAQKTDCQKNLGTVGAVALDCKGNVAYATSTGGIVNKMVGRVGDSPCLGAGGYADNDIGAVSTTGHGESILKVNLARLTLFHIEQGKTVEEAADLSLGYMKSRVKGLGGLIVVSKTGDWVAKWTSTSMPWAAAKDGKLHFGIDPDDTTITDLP
UniProt P24539: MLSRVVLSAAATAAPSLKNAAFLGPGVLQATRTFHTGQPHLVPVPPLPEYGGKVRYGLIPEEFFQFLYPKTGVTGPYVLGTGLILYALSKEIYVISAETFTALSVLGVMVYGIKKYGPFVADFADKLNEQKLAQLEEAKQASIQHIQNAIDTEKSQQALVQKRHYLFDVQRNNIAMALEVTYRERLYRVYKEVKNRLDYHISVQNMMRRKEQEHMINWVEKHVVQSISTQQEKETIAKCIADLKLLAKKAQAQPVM
UniProt Q9HD20: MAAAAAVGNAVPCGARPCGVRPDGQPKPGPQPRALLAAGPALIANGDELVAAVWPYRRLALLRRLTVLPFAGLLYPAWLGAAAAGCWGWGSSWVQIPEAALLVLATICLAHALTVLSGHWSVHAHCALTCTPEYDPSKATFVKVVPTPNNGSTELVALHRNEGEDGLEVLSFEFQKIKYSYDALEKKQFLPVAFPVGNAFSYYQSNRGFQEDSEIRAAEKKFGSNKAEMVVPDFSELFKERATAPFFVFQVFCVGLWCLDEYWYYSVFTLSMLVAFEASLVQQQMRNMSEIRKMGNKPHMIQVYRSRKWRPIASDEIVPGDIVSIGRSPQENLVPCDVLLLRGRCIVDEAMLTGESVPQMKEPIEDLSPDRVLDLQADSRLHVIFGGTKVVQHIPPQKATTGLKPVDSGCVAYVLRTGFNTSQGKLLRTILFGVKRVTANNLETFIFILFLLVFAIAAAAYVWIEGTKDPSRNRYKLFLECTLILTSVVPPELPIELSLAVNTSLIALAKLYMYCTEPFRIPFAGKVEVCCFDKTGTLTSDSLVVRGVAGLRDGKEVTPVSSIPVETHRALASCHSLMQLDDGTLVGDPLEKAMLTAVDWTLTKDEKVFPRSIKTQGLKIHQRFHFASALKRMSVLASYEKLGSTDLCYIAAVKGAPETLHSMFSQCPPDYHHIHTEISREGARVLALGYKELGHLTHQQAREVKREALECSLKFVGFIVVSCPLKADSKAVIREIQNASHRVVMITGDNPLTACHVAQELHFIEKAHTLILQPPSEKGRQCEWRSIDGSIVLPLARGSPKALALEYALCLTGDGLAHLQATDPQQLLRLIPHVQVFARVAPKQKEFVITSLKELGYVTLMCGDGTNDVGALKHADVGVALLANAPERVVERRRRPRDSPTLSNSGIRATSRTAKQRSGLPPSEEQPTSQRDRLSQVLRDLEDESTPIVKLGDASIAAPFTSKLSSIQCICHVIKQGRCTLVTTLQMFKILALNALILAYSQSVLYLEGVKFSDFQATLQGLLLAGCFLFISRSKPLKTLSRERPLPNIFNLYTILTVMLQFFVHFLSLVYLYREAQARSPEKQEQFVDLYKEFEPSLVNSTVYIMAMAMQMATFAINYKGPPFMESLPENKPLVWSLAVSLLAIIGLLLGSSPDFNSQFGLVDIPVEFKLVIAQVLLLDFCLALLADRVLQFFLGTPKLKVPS
UniProt Q96DT6: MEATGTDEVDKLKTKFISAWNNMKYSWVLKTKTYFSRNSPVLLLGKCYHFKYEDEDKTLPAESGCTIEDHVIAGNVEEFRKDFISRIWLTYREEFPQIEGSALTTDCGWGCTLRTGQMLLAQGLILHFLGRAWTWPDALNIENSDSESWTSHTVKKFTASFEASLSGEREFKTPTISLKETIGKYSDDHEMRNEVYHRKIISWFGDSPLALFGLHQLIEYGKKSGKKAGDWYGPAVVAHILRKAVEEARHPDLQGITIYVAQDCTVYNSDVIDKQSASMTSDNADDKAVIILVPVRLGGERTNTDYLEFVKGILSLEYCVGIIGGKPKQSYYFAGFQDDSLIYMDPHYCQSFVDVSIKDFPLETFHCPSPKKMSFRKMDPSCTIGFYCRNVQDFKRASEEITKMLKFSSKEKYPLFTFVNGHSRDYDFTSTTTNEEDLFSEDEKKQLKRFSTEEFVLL

Columns and labels:
Experiment in all cases: log2 fold change, soluble protein after heating vs DMSO (PISA); higher = thermal stabilisation; K562 cells, 10 uM, 30 min; active = over 0.2 and 3.5 SD of the protein, either way, in both replicates (recomputed)
[1] = compound: CC[C@@H]1C(=O)N(C)c2cnc(Nc3ccc(C(=O)NC4CCN(C)CC4)cc3OC)nc2N1C1CCCC1
Summary of the method: (§1)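 K562 cells (2×10^6 cells/mL) were treated with 10 μM compound for 30 min, and aliquots were heated for 3 min over 48°C-58°C. Pooled aliquots were extracted in PBS with 0.5% NP-40 at 4°C, and the supernatant after 21,000xg for 90 min was measured by TMTpro 16plex LC-MS/MS with channel sums equalised. Reported thermal stability, relative to control samples and from duplicates, is a log2 fold change.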

volasertib = compound: CC[C@@H]1C(=O)N(C)c2cnc(Nc3ccc(C(=O)N[C@H]4CC[C@H](N5CCN(CC6CC6)CC5)CC4)cc3OC)nc2N1C(C)C [volasertib]
Summary of the method: as §1

[2] = compound: CC[C@H](C)N1C=C(C2=C(C=C(C=C21)C3=CN=C(C=C3)N4CCNCC4)C(=O)NCC5=C(C=C(NC5=O)C)C)C
Summary of the method: as §1

epoxomicin = compound: CC[C@H](C)[C@@H](C(=O)N[C@@H]([C@@H](C)O)C(=O)N[C@@H](CC(C)C)C(=O)[C@]1(CO1)C)NC(=O)[C@H]([C@@H](C)CC)N(C)C(=O)C [epoxomicin]
Summary of the method: as §1

[3] = compound: CCn1c(C(=O)N(C2CC2)C2CC2)cc2c3c(ncn3C)c(Nc3cc(C)n(C)n3)nc21
Summary of the method: as §1

[4] = compound: CCn1cc(-c2ccnc3[nH]c(-c4cccc(CN(C)C)c4)cc23)c(-c2ccc(NC(=O)N(C)C)cc2)n1
Summary of the method: as §1

[5] = compound: CN(C)CC(=O)Nc1ccc2[nH]c(=O)c3ccccc3c2c1
Summary of the method: as §1

rosiglitazone = compound: CN(CCOC1=CC=C(C=C1)C[C@H]2C(=O)NC(=O)S2)C3=CC=CC=N3 (racemic) [rosiglitazone]
Summary of the method: as §1

[6] = compound: CN1C2=C(C3=C1C(=O)N(N=C3)CC4=CC(=CC=C4)N)SC(=C2)S(=O)C
Summary of the method: as §1

[7] = compound: CN1CCC(CNc2ccc3ncc(-c4cccc(OC(F)(F)F)c4)n3n2)CC1
Summary of the method: as §1

saracatinib = compound: CN1CCN(CCOc2cc(OC3CCOCC3)c3c(Nc4c(Cl)ccc5c4OCO5)ncnc3c2)CC1 [saracatinib]
Summary of the method: as §1

sotrastaurin = compound: CN1CCN(c2nc(C3=C(c4c[nH]c5ccccc45)C(=O)NC3=O)c3ccccc3n2)CC1 [sotrastaurin]
Summary of the method: as §1

alvocidib = compound: CN1CC[C@H](c2c(O)cc(O)c3c(=O)cc(-c4ccccc4Cl)oc23)[C@H](O)C1 [alvocidib]
Summary of the method: as §1

Tubastatin A = compound: CN1CCc2c(c3ccccc3n2Cc2ccc(C(=O)NO)cc2)C1 [Tubastatin A]
Summary of the method: as §1

[8] = compound: CNC(=O)C1=CC=CC=C1NC2=NC(=NC=C2Cl)NC3=C(C=C(C=C3)N4CCOCC4)OC
Summary of the method: as §1

defactinib = compound: CNC(=O)c1ccc(Nc2ncc(C(F)(F)F)c(NCc3nccnc3N(C)S(C)(=O)=O)n2)cc1 [defactinib]
Summary of the method: as §1

rucaparib = compound: CNCc1ccc(-c2[nH]c3cc(F)cc4c3c2CCNC4=O)cc1 [rucaparib]
Summary of the method: as §1

[9] = compound: CNc1nc(-c2ccc3c(N)n[nH]c3c2)cc(N2C[C@@H](C(=O)NC3CCCCC3)CC[C@H]2C)n1
Summary of the method: as §1

encorafenib = compound: COC(=O)N[C@@H](C)CNc1nccc(-c2cn(C(C)C)nc2-c2cc(Cl)cc(NS(C)(=O)=O)c2F)n1 [encorafenib]
Summary of the method: as §1

[10] = compound: COC(=O)[C@H](CCSC)NC(=O)C1=C(C=C(C=C1)NC[C@H](CS)N)C2=CC=CC=C2
Summary of the method: as §1

Measured: log2 fold change

ARSB (UniProt P15848)
inactive: [1] -0.048 | volasertib -0.002 | [2] -0.076 | epoxomicin -0.018 | [3] 0.062 | [4] 0 | [5] 0.036 | rosiglitazone 0.011 | [6] 0.096 | [7] -0.168 | saracatinib -0.077 | sotrastaurin 0.011 | alvocidib 0.015 | Tubastatin A 0.039 | [8] 0.026 | defactinib -0.038 | rucaparib -0.128 | [9] -0.05 | encorafenib -0.022 | [10] -0.028

ARMC1 (UniProt Q9NVT9)
inactive: [1] -0.061 | volasertib -0.093 | [2] 0.039 | epoxomicin 0.042 | [3] -0.034 | [4] -0.031 | [5] 0.048 | rosiglitazone 0.053 | [6] -0.066 | [7] -0.181 | saracatinib 0.034 | sotrastaurin -0.086 | alvocidib -0.039 | Tubastatin A 0.015 | [8] -0.013 | defactinib -0.048 | rucaparib -0.033 | [9] -0.008 | encorafenib 0.053 | [10] -0.04

ATM (UniProt Q13315)
inactive: [1] 0.008 | volasertib -0.098 | [2] 0.029 | epoxomicin 0.042 | [3] -0.008 | [4] -0.055 | [5] 0.018 | rosiglitazone 0.046 | [6] 0.007 | [7] -0.017 | saracatinib -0.007 | sotrastaurin 0.021 | alvocidib -0.022 | Tubastatin A 0.081 | [8] -0.039 | defactinib 0.002 | rucaparib -0.015 | [9] 0.08 | encorafenib -0.036 | [10] 0.014

Copied from above (2 entries):
ARMC1 (UniProt Q9NVT9)
inactive: [1] -0.061 | volasertib -0.093 | [2] 0.039 | epoxomicin 0.042 | [3] -0.034 | [4] -0.031 | [5] 0.048 | rosiglitazone 0.053 | [6] -0.066 | [7] -0.181 | saracatinib 0.034 | sotrastaurin -0.086 | alvocidib -0.039 | Tubastatin A 0.015 | [8] -0.013 | defactinib -0.048 | rucaparib -0.033 | [9] -0.008 | encorafenib 0.053 | [10] -0.04

ATM (UniProt Q13315)
inactive: [1] 0.008 | volasertib -0.098 | [2] 0.029 | epoxomicin 0.042 | [3] -0.008 | [4] -0.055 | [5] 0.018 | rosiglitazone 0.046 | [6] 0.007 | [7] -0.017 | saracatinib -0.007 | sotrastaurin 0.021 | alvocidib -0.022 | Tubastatin A 0.081 | [8] -0.039 | defactinib 0.002 | rucaparib -0.015 | [9] 0.08 | encorafenib -0.036 | [10] 0.014

Following part.

ARNT (UniProt P27540)
inactive: [1] -0.1 | volasertib -0.119 | [2] 0.063 | epoxomicin 0 | [3] 0 | [4] 0.086 | [5] 0.089 | rosiglitazone -0.121 | [6] 0.066 | [7] -0.096 | saracatinib 0.102 | sotrastaurin -0.018 | alvocidib 0.04 | Tubastatin A 0.053 | [8] -0.022 | defactinib -0.007 | rucaparib 0.025 | [9] 0.101 | encorafenib -0.019 | [10] 0.221

ATG12 (UniProt O94817)
inactive: [1] -0.047 | volasertib -0.059 | [2] 0.061 | epoxomicin -0.013 | [3] 0.024 | [4] -0.139 | [5] -0.015 | rosiglitazone 0.038 | [6] -0.073 | [7] -0.023 | saracatinib -0.013 | sotrastaurin -0.012 | alvocidib -0.063 | Tubastatin A 0.043 | [8] 0.039 | defactinib -0.007 | rucaparib 0.05 | [9] -0.011 | encorafenib -0.004 | [10] -0.017

ATP6V1A (UniProt P38606)
inactive: [1] -0.076 | volasertib -0.038 | [2] -0.012 | epoxomicin 0.015 | [3] 0.049 | [4] -0.107 | [5] -0.008 | rosiglitazone 0.005 | [6] 0 | [7] -0.076 | saracatinib -0.03 | sotrastaurin 0.038 | alvocidib -0.004 | Tubastatin A 0.022 | [8] -0.043 | defactinib -0.017 | rucaparib 0.012 | [9] 0.014 | encorafenib 0.015 | [10] -0.004

ATP6AP2 (UniProt O75787)
inactive: [1] 0.017 | volasertib -0.019 | [2] -0.015 | epoxomicin 0.045 | [3] 0.046 | [4] 0.033 | [5] -0.048 | rosiglitazone 0.004 | [6] 0.072 | [7] 0.044 | saracatinib 0.03 | sotrastaurin -0.012 | alvocidib -0.009 | Tubastatin A 0.084 | [8] 0.033 | defactinib 0.018 | rucaparib -0.008 | [9] -0.051 | encorafenib -0.002 | [10] -0.017

ATG3 (UniProt Q9NT62)
inactive: [1] -0.032 | volasertib -0.056 | [2] 0.02 | epoxomicin 0.044 | [3] -0.012 | [4] -0.03 | [5] -0.01 | rosiglitazone 0.01 | [6] -0.023 | [7] -0.087 | saracatinib 0.022 | sotrastaurin 0.037 | alvocidib -0.011 | Tubastatin A -0.01 | [8] -0.005 | defactinib -0.01 | rucaparib -0.062 | [9] 0.007 | encorafenib 0.011 | [10] 0.004

ATP6V1D (UniProt Q9Y5K8)
inactive: [1] -0.015 | volasertib 0.036 | [2] -0.019 | epoxomicin 0.009 | [3] 0.027 | [4] -0.02 | [5] -0.012 | rosiglitazone 0.018 | [6] -0.052 | [7] -0.057 | saracatinib 0.014 | sotrastaurin 0.045 | alvocidib 0.028 | Tubastatin A -0.021 | [8] -0.05 | defactinib -0.004 | rucaparib -0.009 | [9] 0.03 | encorafenib 0.018 | [10] 0.029

ATP5F1D (UniProt P30049)
inactive: [1] 0.028 | volasertib -0.22 | [2] -0.025 | epoxomicin 0.033 | [3] -0.016 | [4] 0.018 | [5] 0.023 | rosiglitazone -0.052 | [6] -0.004 | [7] 0.085 | saracatinib -0.005 | sotrastaurin 0.02 | alvocidib 0.033 | Tubastatin A 0.019 | [8] 0.006 | defactinib -0.03 | rucaparib -0.069 | [9] -0.025 | encorafenib -0.011 | [10] 0

ARL8B (UniProt Q9NVJ2)
inactive: [1] -0.082 | volasertib -0.034 | [2] -0.01 | epoxomicin -0.002 | [3] 0.055 | [4] 0.013 | [5] 0.001 | rosiglitazone -0.032 | [6] -0.033 | [7] -0.042 | saracatinib 0.042 | sotrastaurin -0.001 | alvocidib 0.029 | Tubastatin A -0.01 | [8] -0.017 | defactinib -0.021 | rucaparib -0.009 | [9] -0.036 | encorafenib -0.011 | [10] 0.023

ASRGL1 (UniProt Q7L266)
inactive: [1] -0.034 | volasertib 0.01 | [2] -0.016 | epoxomicin -0.015 | [3] -0.058 | [4] 0.016 | [5] 0.025 | rosiglitazone 0.05 | [6] -0.049 | [7] -0.069 | saracatinib 0.093 | sotrastaurin 0.048 | alvocidib -0.007 | Tubastatin A 0.019 | [8] 0.047 | defactinib -0.099 | rucaparib 0.025 | [9] -0.046 | encorafenib -0.045 | [10] 0.046

ATP5PB (UniProt P24539)
inactive: [1] -0.025 | volasertib 0.084 | [2] -0.026 | epoxomicin 0.003 | [3] 0.022 | [4] 0.015 | [5] 0 | rosiglitazone -0.007 | [6] 0.001 | [7] 0.057 | saracatinib 0.025 | sotrastaurin 0.041 | alvocidib 0.004 | Tubastatin A -0.008 | [8] 0.031 | defactinib 0.013 | rucaparib -0.052 | [9] -0.043 | encorafenib -0.002 | [10] -0.019

ARPC5 (UniProt O15511)
inactive: [1] 0.051 | volasertib 0.014 | [2] -0.026 | epoxomicin 0.012 | [3] 0.005 | [4] 0.025 | [5] 0.003 | rosiglitazone -0.017 | [6] 0.032 | [7] -0.029 | saracatinib -0.048 | sotrastaurin 0.004 | alvocidib 0.03 | Tubastatin A -0.012 | [8] 0.026 | defactinib 0.004 | rucaparib -0.043 | [9] -0.103 | encorafenib -0.026 | [10] -0.019

ATP13A1 (UniProt Q9HD20)
inactive: [1] 0.035 | volasertib 0.073 | [2] 0 | epoxomicin 0.033 | [3] -0.038 | [4] 0.016 | [5] 0.022 | rosiglitazone 0.034 | [6] -0.066 | [7] -0.063 | saracatinib 0.032 | sotrastaurin 0.005 | alvocidib -0.042 | Tubastatin A -0.021 | [8] -0.01 | defactinib -0.02 | rucaparib -0.034 | [9] -0.003 | encorafenib 0.023 | [10] -0.012

ATG4C (UniProt Q96DT6)
inactive: [1] -0.018 | volasertib -0.191 | [2] 0.084 | epoxomicin -0.052 | [3] -0.195 | [4] -0.006 | [5] -0.005 | rosiglitazone 0.023 | [6] 0.015 | [7] -0.024 | saracatinib 0.086 | sotrastaurin -0.093 | alvocidib -0.23 | Tubastatin A 0.046 | [8] 0.024 | defactinib -0.103 | rucaparib -0.057 | [9] -0.014 | encorafenib 0.011 | [10] -0.057
